Results deposited as PubChem BioAssay AID686943 (Drosophila RNAi Screening Center, 2013)

- Purpose: 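Search across the genome for regulators of signalling from receptor tyrosine kinase to ERK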 (primary screen)
- Cell system: Drosophila S2R+ haemocyte-like cells expressing YFP-tagged ERK (Rolled)
- Reagent: long dsRNA against Drosophila genes
- Conditions: insulin stimulation versus unstimulated cells; dose and duration not given
- Read-out: 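Antibody staining for doubly phosphorylated ERK divided by ERK-YFP signal, as plate z-scores, in insulin-treated and untreated cells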
- Reading the numbers: replicate 1, z-score of dpERK with insulin and replicate 2, z-score of dpERK with insulin: higher = more active ERK per ERK-YFP after insulin
The screen tested about 23,000 reagents; shown is a random part of those with a known target gene and a result. 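Extra replicates exist only for a retested subset of genes; insulin dose and duration not given; both raised and lowered dpERK matter.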 The numbers tell different reagents against one gene apart. Not all columns of the deposit are shown. Not stated in the record: the amount of reagent, the time to read-out.

RfC3 (Replication factor C subunit 3) | replicate 1, z-score of dpERK with insulin = 0.22; replicate 2, z-score of dpERK with insulin = 0.31
lola (longitudinals lacking) #1 | replicate 1, z-score of dpERK with insulin = -4.13; replicate 2, z-score of dpERK with insulin = -4.54
lola (longitudinals lacking) #2 | replicate 1, z-score of dpERK with insulin = -0.48; replicate 2, z-score of dpERK with insulin = 0.25
lola (longitudinals lacking) #3 | replicate 1, z-score of dpERK with insulin = -0.2; replicate 2, z-score of dpERK with insulin = 0.76
lola (longitudinals lacking) #4 | replicate 1, z-score of dpERK with insulin = -2.11; replicate 2, z-score of dpERK with insulin = -1.49
lola (longitudinals lacking) #5 | replicate 1, z-score of dpERK with insulin = 0.01; replicate 2, z-score of dpERK with insulin = -1.66
lola (longitudinals lacking) #6 | replicate 1, z-score of dpERK with insulin = 0.37; replicate 2, z-score of dpERK with insulin = 1.08
lola (longitudinals lacking) #7 | replicate 1, z-score of dpERK with insulin = 0.31; replicate 2, z-score of dpERK with insulin = 0.88
lola (longitudinals lacking) #8 | replicate 1, z-score of dpERK with insulin = -0.09; replicate 2, z-score of dpERK with insulin = -0.09
lola (longitudinals lacking) #9 | replicate 1, z-score of dpERK with insulin = -0.77; replicate 2, z-score of dpERK with insulin = 0.12
lola (longitudinals lacking) #10 | replicate 1, z-score of dpERK with insulin = -4.59; replicate 2, z-score of dpERK with insulin = -3.74
lola (longitudinals lacking) #11 | replicate 1, z-score of dpERK with insulin = 0.03; replicate 2, z-score of dpERK with insulin = -0.28
lola (longitudinals lacking) #12 | replicate 1, z-score of dpERK with insulin = -0.65; replicate 2, z-score of dpERK with insulin = -0.27
